These are yes or no findings as the source states them, for the method shown. Binding seen in cells or lysates may run through a third protein. Some entries that bind do so weakly or less than the wild type.
Biological target: T1, Receptor-interacting protein kinase 1 (RIPK1), mouse myocardium (mouse (endogenous in C57BL/6 myocardium)), Q60855
T1 chain: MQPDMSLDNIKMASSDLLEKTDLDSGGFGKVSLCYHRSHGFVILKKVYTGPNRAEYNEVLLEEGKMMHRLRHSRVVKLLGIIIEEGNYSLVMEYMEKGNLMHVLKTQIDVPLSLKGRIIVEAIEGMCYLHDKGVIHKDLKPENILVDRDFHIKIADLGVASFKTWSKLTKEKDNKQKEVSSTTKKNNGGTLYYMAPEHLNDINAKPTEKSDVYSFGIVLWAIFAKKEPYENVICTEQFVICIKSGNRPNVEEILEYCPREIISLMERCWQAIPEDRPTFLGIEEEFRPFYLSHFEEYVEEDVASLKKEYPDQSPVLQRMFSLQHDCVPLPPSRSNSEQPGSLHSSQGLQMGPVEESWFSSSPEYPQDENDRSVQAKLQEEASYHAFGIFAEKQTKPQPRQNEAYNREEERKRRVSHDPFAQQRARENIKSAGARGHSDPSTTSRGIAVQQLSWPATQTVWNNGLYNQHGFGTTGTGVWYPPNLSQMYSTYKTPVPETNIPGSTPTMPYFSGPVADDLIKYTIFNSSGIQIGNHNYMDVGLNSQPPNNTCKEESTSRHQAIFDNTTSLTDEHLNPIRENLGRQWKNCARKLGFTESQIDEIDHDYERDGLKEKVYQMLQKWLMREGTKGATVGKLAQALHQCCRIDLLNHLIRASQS
Assay: co-IP; mouse myocardium lysate, normoxia and hypoxia; immunoprecipitated with anti-LC3 or anti-RIPK1 antibodies, immunoblotted with anti-LC3, anti-RIPK1 or anti-RIPK3
Conditions: remark: other sources report otherwise

binding: binds
B1: Receptor-interacting protein kinase 3 (RIPK3), mouse myocardium, Q9QZL0 1-486 (protein)
chain: MSSVKLWPTGASAVPLVSREELKKLEFVGKGGFGVVFRAHHRTWNHDVAVKIVNSKKISWEVKAMVNLRNENVLLLLGVTEDLQWDFVSGQALVTRFMENGSLAGLLQPECPRPWPLLCRLLQEVVLGMCYLHSLNPPLLHRDLKPSNILLDPELHAKLADFGLSTFQGGSQSGSGSGSGSRDSGGTLAYLDPELLFDVNLKASKASDVYSFGILVWAVLAGREAELVDKTSLIRETVCDRQSRPPLTELPPGSPETPGLEKLKELMIHCWGSQSENRPSFQDCEPKTNEVYNLVKDKVDAAVSEVKHYLSQHRSSGRNLSAREPSQRGTEMDCPRETMVSKMLDRLHLEEPSGPVPGKCPERQAQDTSVGPATPARTSSDPVAGTPQIPHTLPFRGTTPGPVFTETPGPHPQRNQGDGRHGTPWYPWTPPNPMTGPPALVFNNCSEVQIGNYNSLVAPPRTTASSSAKYDQAQFGRGRGWQPFHK

Reference: article PMC8344065
